Some results were stated once for a whole list of compounds, not compound by compound. At least one structure is not confirmed: it was looked up by name or label, or the drawing left a doubt.
Tests used:
[1] = system: WI-38 normal fibroblast cell line; assay: Growth inhibition (GI50), WI-38; format: cell-based, human; settings: for GI50: WI38 normal cell line (human); for GI50 for WI-38 cells, times lower than that for the NIH-3T3 cells: WI-38 versus NIH-3T3
Text: (§1) For growth inhibitory evaluation, five human tumor cell lines (U937; HT29; A549; MCF7; MCF7/ADR) and two normal fibroblast cell lines (NIH-3T3, murine; WI-38, human) were used. For comparison, the activity of free L-ET18OCH3 and D-ET18OCH3 was examined.

[2] = system: NIH-3T3 normal fibroblast cell line; assay: Growth inhibition (GI50), NIH-3T3; format: cell-based; settings: NIH-3T3 normal cell line (murine)
Text: as §1

SMILES | GI50 [1] [µM] | GI50 for WI-38 cells, times lower than that for the NIH-3T3 cells [1] | GI50 [2] [µM]
CCCCCCCCCCCCCCCCCCOCC(COP(=O)([O-])OCC[N+](C)(C)C)OC [L-ET18OCH3, 1-O-octadecyl-2-O-methyl-glycerophosphocholine] | 10 to 13 | 3-4 times | 41 to 47
CCCCCCCCCCCCCCCCCCOCC(COP(=O)([O-])OCC[N+](C)(C)C)OC [D-ET18OCH3, 1-O-octadecyl-2-O-methyl-glycerophosphocholine] | 10 to 13 | 3-4 times | 41 to 47

Reference: patent US7323601B2, “Enanitomers of unsaturated alkyllysophosphonocholines and use as anti-neoplastics” (Research Foundation of the City University of New York, priority 2001, dated 2008)
